{
  "source": "patent US6660768B2",
  "about": "“Parasiticidal compositions and methods of use” (Schering-Plough Animal Health Corporation, priority 2001, dated 2003)",
  "assay": "Example 3B: solubility of permethrin in PM (propylene glycol monomethyl ether), DM (diethylene glycol monomethyl ether) and PM or DPM (dipropylene glycol monomethyl ether)/d-limonene mixtures at low temperatures, seeded",
  "conditions": "10° C.",
  "protocol": "These solutions were poured into 100 mL tubes with screw top caps. These tubes were placed in the cold water bath and allowed to come to equilibrium at the temperature of the bath. […] The seeded preparations were then thoroughly shaken, replaced in the bath and allowed to remain in the bath for a 24 hour period. The preparations were then examined for crystallization, then again thoroughly agitated and replaced in the bath for an additional time period. Samples of the supernatant were removed after additional crystallization had occurred.\nThe solvent mixtures tested were: dipropylene glycol monomethyl ether/d-limonene and propylene glycol monomethyl ether/d-limonene.\nThese solvent mixtures were evaluated at ratios of 2:1, 1:1, 1:2, and then at 8:2 and 9:1 (the first number refers to one of the glycol ethers, the second number refers to d-limonene).",
  "note": "Further values from the same series stand in other lists.",
  "data": [
    {"smiles": "CC1(C)C(C=C(Cl)Cl)C1C(=O)OCc1cccc(Oc2ccccc2)c1", "note": "(stereo not drawn) [permethrin]", "values": [
      {"measurement": "% Total Permethrin", "setting": "65% permethrin in DPM/d-limonene, 0% d-limonene of solvent mixture", "value": 62.90, "unit": "%"},
      {"measurement": "% Total Permethrin", "setting": "70% permethrin in PM/d-limonene, 67% d-limonene of solvent mixture", "value": 69.04, "unit": "%"},
      {"measurement": "% Total Permethrin", "setting": "70% permethrin in PM/d-limonene, 100% d-limonene of solvent mixture", "value": 69.30, "unit": "%"}
    ]}
  ]
}
